Assay results as given in publication PMC10888616, “Pleiotropic Effects of PhaR Regulator in Bradyrhizobium diazoefficiens Microaerobic Metabolism”.
Construct, isoform or probe ends are uncertain for at least one entry. A weaker result is weaker than the reference pair of the same experiment. Where a protein sequence is shown, tags need not be part of it.

Biological target: T1, PhaR (Bradyrhizobium diazoefficiens USDA 110) (UniProt Q89XT0)
T1 sequence (looked up, limits assumed): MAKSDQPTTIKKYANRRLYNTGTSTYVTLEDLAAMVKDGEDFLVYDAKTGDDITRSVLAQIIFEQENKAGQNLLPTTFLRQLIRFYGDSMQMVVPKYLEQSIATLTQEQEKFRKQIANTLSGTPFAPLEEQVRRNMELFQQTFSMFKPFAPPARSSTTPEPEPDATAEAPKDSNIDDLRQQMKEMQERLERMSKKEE
Assay: EMSA
Conditions: mIVT buffer: 40 mM Tris-HCl pH 7.0, 150 mM KCl, 0.1 mM EDTA, 0.1 mM DTT, 10 uL, 2 ng DNA, 0-2 uM PhaR, 30 min room temperature, 6% native PAGE 0.5X TBE, SYBR Gold, recombinant protein, protein details: untagged (C-terminal intein-CBD removed, IMPACT)

[1] = shift at >=1 uM PhaR, affinity lower than phaP1, probe letters rebuilt from the primers and the genome

Sequence | binding result [1] | also measured
AACGTGACATGCAACCTCAACAGCGCCGATCCGTCAGCGTGATCGCCGCCACATCCGACCCCTTTGACGGGATCGTTCGGCTCGTCCTCGACGCGGCGCGGTTCGGCTTCGGCCTCGACCAGGTCGCGATGACGACCTGCCCCGGTGGCGGCCGGACGATACGGATGGTCCTTGAAGTCCAGCCGTCGGCCGATTGCGCTGACATCGCGGAACGGCTGTCGCGCCATCCGGCGATCACGGACCTTCGCGTCGTGGGGCTCGCGCGCGGGGAATCCGGTCGGCCAGGCGTTGTCTCTGCAGAACCGGCAAACGAGCGGATGCTTCCATGAACAGCCCCACGCCACTTCGCTTTCACGTTC (double strand) [blr6331 promoter PCR fragment] | binds | –
ATGTCTGGATTTGGGCTGTGCATCCGCTACATACTTCGGTTGAGGGCCGTCTCGTCAACTGGAAACGGACCGTTACAGAAAACGGTCTGTGCGGCCTTTTGCCCTTTTTCGGACCATCTTCGCAAGCACAGCTTTAAACCATGTTGCACTGCCAAGGAACACTCATGCGTTTGGCCCTTTACACCGGAATTATACTGGCTGGCGGTTACGCCTGCCTGACTCCTGCTCTCGCCGCCGACCCCACCGGCGACTGGCGGGTCGCCGACGGCGTCGCCAACATCCGTGTCGCCCAATGCAATGGCAGCATGTGGGGCGCGGTTTCCTGGGAAAAGCAGCCTGGCGGCCGTGACGAGAACAACCCGGATGTCTCGAAACAGAACAGGCCGACG (double strand) [blr3010 promoter PCR fragment] | binds | –
CAGGGCGAGAGGTATTTTGGGAGGGGGGCATTTGCGCGCTCCAGATATGTAGTGTTCACTACAGATGTGGAGCTGGATACCGCAGCGCAAGATACTTATGTACCGTTTGCTAAGAAAATTGTAGCCACTTACCGCAAGCATTGGAAGGCGGAAGAGAAAATAAAGCTAGAACAAATAGATAGGATTTGACGTTAAGCTTCACGCAGAACGTGAATTCCGAGGAGACAGGCACATGGGCATGGGACGCCCCCGGGAATTCGACGCCGAAACGGCGTTGGACCAAGCGATGGAAGTGTTCTGGCGCCACGGCTATGAGGGCGCCACCATCGCGCAGCTCACCGAAGCCATGGGCATCAATCCGCCCAGCCTCTAC (double strand) [bll3872 promoter PCR fragment] | binds | –
CTCATCGACAGCGCGATTGCGGCTGCGGATTGGGGGGCGGAGGACGCCGAAGAAGCTGCGCATCCGACCTGACCGATGCACGCTCGGCGGGCATCTCGCGAAGCGCCCGCTTGACAAGCCCTGCCCTTCGGCTGTAGGGACGCGGCCCATGATCAATTCTCGGACCAACCGCCGCGCAGCTTTCCGTCGTCGCACCCGCGACGATGATGGGTTGCGCCATGTCCGACGACGCCGCTGAAGCACTGAATTCAGCCAGTTTTCGAGAAGGCCGCACCCGCAAAGTGCGGCCTTCTTGCTTTTTGCGTCCATTTTCCACCCGCCCCTCGATAGGAGTTCGACATGACCACCGCCACCCATCCGTATGATGCGCTGATGGATATCAC (double strand) [blr4582 promoter PCR fragment] | binds | –
GAACCTGAGCCGCTATTCTGGCTAAGGTGATGTTCTCAAACGGCTTTTGGCCGCTTGCGGAAGCTGAACACGTCCAGGGAATCAAGGTAGGGGTCCGCGGTTTCCAAAAGCTTAAGGAACCCTTGCGGGAAACCCCGGGAATCTCTTCGGTTTGGATCTAGTTTTTGTGCGACGCACAAGATTCTTGACTTTTTTGTGCGTTGCACTAATTGTGGGCAGAGTCAGGGAGCCGGGGCTTCCCGACGCGAGCCAGGGAAAAGGATTCCGAAATGTTCAAGGTTGAAGACTTTCAGAGCTACGGGAAAGAGCAGTTCG (double strand) [phaP1 promoter PCR fragment] | – | binding result (shift at 0.5 uM PhaR, probe letters rebuilt from the primers and the genome): binds
GATCTAGTTTTTGTGCGACGCACAAGATTCTTGACTTTTTTGTTAGTTTAACTAATTGTGGGCAGAG / CTCTGCCCACAATTAGTTAAACTGACAAAAAAGTCAAGAATCTTGTGCGTCGCACAAAAACTAGATC [phaP1 67 bp, proximal box mutated (5155_4)] | – | binding result (shift needs >=1 uM PhaR): binds more weakly
GATCTAGTTTTTGTTAGACTAACAAGATTCTTGACTTTTTTGTGCGTTGCACTAATTGTGGGCAGAG (double strand) [phaP1 67 bp, distal box mutated (5155_3)] | – | binding result (shift needs >=1 uM PhaR): binds more weakly
GATCTAGTTTTTGTTAGACTAACAAGATTCTTGACTTTTTTGTTAGTTTAACTAATTGTGGGCAGAG / CTCTGCCCACAATTAGTTAAACTGACAAAAAAGTCAAGAATCTTGTTAGTCTAACAAAAACTAGATC [phaP1 67 bp, both boxes mutated (5155_5)] | – | binding result (weak binding even at 2 uM PhaR): binds more weakly
GCCCGGACGAAGTAGAGACGGCTCCCGGCCGGCGGCCACAATCCCGCCGAAAGGCCATTGACGGACGCAAGACTCTCCCCCATAAGTCGCCGCCATGTTCACGACCACCAAACGCACGACCAAAACCACCACGGCCTTCGGGGCCCGGGGAGGCGTGCGCGCGTAGTCGTCGACTGAAACGCATCAGCTCTACCGAAGCCCCGCCCTCGATGGTCCGGGGCTTTTTTGTTGTCTAAAGCTCACAGCATGATCCGGAAAAGTGGAATCCGGTTTTCCGACGAGATCATGCTCAACTTGAATGGAGGAGAATGTGAGTAACGATCCCGTCGT (double strand) [blr4687 promoter PCR fragment] | binds | –
GCTGATGGAGGAGGTCGATCTCGTCATCCTCTGCCTGCCCGACGAGGCCGCCAAGGAGACGGTTGCGCTCATCGACAGCATGGGGCCGTCGGGCCCGAAGGTGCTGGACGCCTCGACCGCCTACCGGGGTTGCGCCCGACTGGGCCTACGGCTTTCCGGAACTGACGCCGGATCAGCCCGCCAAGATCAAGGCCGCGAAGAAGGTCTCCAATCCCGGCTGCTATCCGACCGGCGCGATCGCGCTCTTGCGGCCGATCGTCGATGCCGGGCTGTTGCCATCAGACTATCCCGTCACGGTGAAC (double strand) [blr4358 promoter PCR fragment] | binds | –
GGCAGCTCTTGTCGGATTTACGACATTGCGGCGGCAATCGGACATACACATGCGGAATTCGGAGCGCGCGGATCCATGGCTGAAAACCAACACCGTGAGTGCTCGTCTACGCCGACGTCGTCTTGATGAACCTTCAGTATGCACCTGCGTTGCTCCAAAAAGGCGAGACGCCGGCGGCCGCCCCGCAAGAGATGCTTCGCATTTTTGAGACCATTACCTCCGAGCATGATGTCGGGTTGTTCCGCCGTTTCGAAATTATGCGCTACCGGCATGTCAAGCGCGGTATCCCGATTCGGACGTGACAGTTGTCGAGGATCGAGTGTTGGGCCCATATGCCTTCTCGATCTGGTCCAGCGACTGAGCGATCAGGAAACTCTTGATGCCGTAGCC (double strand) [blr2131 promoter PCR fragment] | binds | –
